Results from article PMC5433685.
No constants are given. Whether binding was seen depends on the method and setting. In cells and extracts the contact can be indirect. Some entries that bind do so weakly or less than the wild type.

The chains behind the UniProt entries cited, without tags or fusion partners. Where a name states a change or a piece, a line headed by the entry shows the natural chain unless it says otherwise.
UniProt P13569: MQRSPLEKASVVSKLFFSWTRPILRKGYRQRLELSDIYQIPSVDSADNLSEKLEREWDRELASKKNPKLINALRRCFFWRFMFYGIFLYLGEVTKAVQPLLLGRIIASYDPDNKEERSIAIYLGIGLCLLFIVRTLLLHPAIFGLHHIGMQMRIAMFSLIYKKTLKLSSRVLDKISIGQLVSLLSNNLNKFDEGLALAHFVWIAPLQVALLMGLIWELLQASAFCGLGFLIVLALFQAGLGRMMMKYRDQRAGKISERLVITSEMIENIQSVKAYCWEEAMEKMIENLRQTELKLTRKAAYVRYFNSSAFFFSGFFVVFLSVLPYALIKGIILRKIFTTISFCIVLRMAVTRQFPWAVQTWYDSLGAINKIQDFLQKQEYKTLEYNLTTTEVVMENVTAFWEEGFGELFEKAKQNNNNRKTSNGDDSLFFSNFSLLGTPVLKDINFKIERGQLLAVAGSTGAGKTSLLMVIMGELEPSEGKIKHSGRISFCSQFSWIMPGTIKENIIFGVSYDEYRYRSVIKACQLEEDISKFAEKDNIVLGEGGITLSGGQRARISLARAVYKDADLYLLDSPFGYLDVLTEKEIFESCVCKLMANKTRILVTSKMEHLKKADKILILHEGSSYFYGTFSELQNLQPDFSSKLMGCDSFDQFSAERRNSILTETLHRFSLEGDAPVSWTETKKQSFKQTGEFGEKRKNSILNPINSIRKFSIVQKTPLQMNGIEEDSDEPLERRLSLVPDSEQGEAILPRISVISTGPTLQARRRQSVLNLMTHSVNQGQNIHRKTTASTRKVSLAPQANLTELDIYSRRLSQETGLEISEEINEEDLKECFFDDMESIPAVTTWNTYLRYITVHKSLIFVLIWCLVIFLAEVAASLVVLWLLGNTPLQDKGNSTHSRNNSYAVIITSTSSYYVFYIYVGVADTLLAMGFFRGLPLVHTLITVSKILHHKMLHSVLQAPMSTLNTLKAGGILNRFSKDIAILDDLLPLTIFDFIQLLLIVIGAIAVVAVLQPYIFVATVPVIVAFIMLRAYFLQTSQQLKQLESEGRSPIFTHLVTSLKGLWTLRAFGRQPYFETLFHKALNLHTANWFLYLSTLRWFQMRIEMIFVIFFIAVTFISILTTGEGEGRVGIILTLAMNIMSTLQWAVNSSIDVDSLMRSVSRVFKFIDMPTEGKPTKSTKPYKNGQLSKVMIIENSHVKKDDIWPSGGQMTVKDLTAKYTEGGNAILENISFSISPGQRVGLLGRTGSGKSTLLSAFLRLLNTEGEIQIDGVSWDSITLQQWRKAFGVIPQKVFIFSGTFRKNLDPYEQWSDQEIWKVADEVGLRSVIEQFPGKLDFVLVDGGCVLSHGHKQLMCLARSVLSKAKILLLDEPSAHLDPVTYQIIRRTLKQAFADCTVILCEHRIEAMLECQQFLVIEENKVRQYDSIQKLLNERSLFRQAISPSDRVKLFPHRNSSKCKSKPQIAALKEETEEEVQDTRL
UniProt Q9UNE7: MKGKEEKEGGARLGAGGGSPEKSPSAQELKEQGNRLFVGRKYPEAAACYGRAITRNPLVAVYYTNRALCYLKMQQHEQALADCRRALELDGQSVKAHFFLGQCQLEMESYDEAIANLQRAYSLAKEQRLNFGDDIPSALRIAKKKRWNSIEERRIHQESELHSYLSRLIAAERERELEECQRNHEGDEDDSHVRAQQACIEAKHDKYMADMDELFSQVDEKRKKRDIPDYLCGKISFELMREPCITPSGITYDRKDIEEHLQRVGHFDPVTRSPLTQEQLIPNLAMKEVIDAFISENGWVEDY
UniProt Q99942: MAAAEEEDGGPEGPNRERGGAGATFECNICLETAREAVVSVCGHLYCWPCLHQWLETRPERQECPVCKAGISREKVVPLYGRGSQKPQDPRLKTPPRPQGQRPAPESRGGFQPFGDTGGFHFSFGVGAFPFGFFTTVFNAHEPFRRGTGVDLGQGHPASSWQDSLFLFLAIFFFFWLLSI

Assays:
[1] = target: T2562G-CFTR (CFTR made from cDNA with the synonymous SNP T2562G, Thr854 ACT to ACG) (human) (UniProt P13569); test: co-IP; lysates of HeLa cells expressing CFTR variants; immunoprecipitation with an anti-CFTR antibody; blots probed with anti-CHIP and anti-RMA1 antibodies; co-precipitated CHIP and RMA1 normalized to immunoprecipitated CFTR (bands B and C)
[2] = target: wild-type cystic fibrosis transmembrane conductance regulator (CFTR) (human) (UniProt P13569); test: as above

binding [1] | binding [2] | Substance
binds | binds | C-terminus of Hsc70-interacting protein (CHIP) (from UniProt Q9UNE7 1-303) (enzyme)
binds | binds | RING domain protein RMA1 (also known as RING Finger Protein 5 [RNF5]) (from UniProt Q99942 1-180) (enzyme)
